# According to PubChem BioAssay AID1259415 (National Center for Advancing Translational Sciences (NCATS), 2018):
# In all, about 410,000 compounds went through this assay and about 18,000 (4.4%) were called active. This list was built around the results that the source calls inconclusive (neither active nor inactive); the mix of calls is not that of the screen. Cut-off read from the data, not from the text of the source: active = activity change below about -60%; inconclusive = no clear call, values can overlap the other calls; inactive = above about -39%.
# Assay: qHTS Assay for inhibitors of the human cytomegalovirus (HCMV)
# Conditions: HFF cells, HCMV-luciferase reporter, 72 h; at 57.5 µM; active compounds read low
# How it was run: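 After 16 h attachment at 37C, HFF cells received test compound and HCMV-luciferase (1 PFU/cell); reporter luminescence read 72 h later, data normalized against buffer-only and known inhibitor Salinomycin.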
# % is set by controls: 0 for no effect and ±100 for the full control effect.
row,SMILES,"activity change, negative = inhibition"
1,Cc1ccc(NS(=O)(=O)c2cccc3nsnc23)cc1C,inactive: -38%
2,CCC1CCCCN1C(=S)NN=C(C)c1ccccn1 (centres undefined),active: -98.5%
3,COC(=O)CCCC(=O)NC(C)c1cnn(-c2ccccc2C)c1C (centres undefined),inconclusive: -41.1%
4,CCN(CC(=O)Nc1ccc(NC(C)=O)cc1)C(=O)Cc1ccccc1F,inactive: -4.2%
5,O=C(c1ccc2ncsc2c1)N1CCN(c2ccc(O)cc2)CC1,inconclusive: -49.9%
6,C=CCn1c(=N)n(CC(=O)c2ccc(OC)cc2)c2ccccc21,inconclusive: -40.9%
7,O=c1nc(N/N=C/c2ccco2)cn[nH]1,inactive: -3.52%
8,COc1ccc(NC(=O)c2nc(-n3nc(C)cc3C)ccc2Cl)cc1Cl,inconclusive: -54.2%
9,CC(=O)N1CCc2cc(Br)cc(S(=O)(=O)NCCCN(C)Cc3ccccc3)c21,inconclusive: -47.4%
10,O=C1OC(NCc2cccnc2)(c2ccc(Cl)cc2)c2ccccc21 (centres undefined),inconclusive: -40.1%
11,Cc1cc(C)c(C)c(S(=O)(=O)N[C@@H](C)C(=O)OCC(N)=O)c1C,inconclusive: -45.1%
12,O=[N+]([O-])c1cc(-c2csc(NCCc3nc4cc(C(F)(F)F)ccc4n3CCCO)n2)ccc1Cl,inactive: 16.5%
13,CCOC(=O)c1nnn2c1nc(Nc1cccc(C(F)(F)F)c1)c1ccccc12,active: -74.3%
14,Cc1nc(SCC(=O)Nc2c(C)n(C)n(-c3ccccc3)c2=O)c(C#N)c(C)c1C,inactive: -21.6%
15,CC(C)Cc1nc(N2CCN(C(=O)c3ccccc3)CC2)c(C#N)c2c1CCC2,inconclusive: -45.2%
16,O=C(Cn1c(=O)n(Cc2ccccc2)c(=O)c2oc3ccccc3c21)Nc1ccc(Cl)cc1,inactive: -3.17%
17,Cc1cccc(N2CCN(C(=O)c3cc4ccccc4oc3=O)CC2)c1C,inconclusive: -59.9%
18,Cc1cc(C)c(C#N)c(N2CCN(c3ccc(F)cc3)CC2)n1,inactive: -17.7%
19,CC(=O)Nc1cc(C(=O)NCc2ccc(F)cc2Cl)ccc1Sc1ccc(Cl)cc1,inactive: 5.5%
20,COc1ccccc1/C=N/NC(=O)Cn1cnc([N+](=O)[O-])n1,inconclusive: -56.3%
21,Cc1ccc2nc(-c3cccnc3)oc2c1,inactive: 94.4%
22,CCCN1C(=O)S/C(=C/c2ccc(N3CCOCC3)o2)C1=O,active: -78.8%

# Part of the list above in order of count of non-hydrogen atoms, largest number first:
row,SMILES,"activity change, negative = inhibition"
16,O=C(Cn1c(=O)n(Cc2ccccc2)c(=O)c2oc3ccccc3c21)Nc1ccc(Cl)cc1,inactive: -3.17%
3,COC(=O)CCCC(=O)NC(C)c1cnn(-c2ccccc2C)c1C (centres undefined),inconclusive: -41.1%
5,O=C(c1ccc2ncsc2c1)N1CCN(c2ccc(O)cc2)CC1,inconclusive: -49.9%

# (list continues)

row,SMILES,"activity change, negative = inhibition"
1,O=C(COC(=O)c1ccco1)c1ccc(F)cc1,inconclusive: -43.8%
2,COc1ccc(C[C@H](N)C(=O)N[C@H]2[C@@H](O)[C@H](n3cnc4c(N(C)C)ncnc43)O[C@@H]2CO)cc1,active: -98.4%
3,COc1ccc2nc(N3C(=O)CC(C(C)c4ccccc4)C3=O)sc2c1 (centres undefined),inconclusive: -40.5%
4,COc1ccc(-c2noc(N3CCC(C(=O)Nc4ccccc4OC)CC3)n2)cc1,inconclusive: -43.6%
5,CCOc1ccccc1C(=O)Nc1ccc2nc3n(c(=O)c2c1)CCCCC3,inconclusive: -55.1%
6,Cc1ccc(NC(=O)C2(S(=O)(=O)c3ccc(Cl)cc3)CC2)c(Br)c1,inconclusive: -53.5%
7,CN(c1ccccc1)S(=O)(=O)c1cccc(NC(=O)Cn2cnc3c2c(=O)n(C)c(=O)n3C)c1,inconclusive: -41.1%
8,Cc1c(C(=O)N2CCN(Cc3ccccc3)CC2)oc2c1C(=O)CC(C)(C)C2,inconclusive: -51%
9,Cc1ccc(OCC(=O)N2C(C)CCCC2C)c([N+](=O)[O-])n1 (centres undefined),inactive: -9.78%
10,CCC(C)Nc1nnnc2c1sc1nc3c(cc12)COC(C)(C)C3 (centres undefined),inconclusive: -50.1%
11,Cc1sc(NC(=O)Cn2cnnn2)nc1-c1ccc(Cl)cc1,inconclusive: -52.6%
12,CCOC(=O)c1sc(NC(=O)CSc2ncccn2)nc1C,inactive: -11.1%
13,CC1(C2CC2)NC(=O)N(CC(=O)N2CCN(c3cccc(C(F)(F)F)c3)CC2)C1=O (centres undefined),inconclusive: -43.3%
14,CCOC(=O)c1[nH]c(C)c(CCC(=O)Nc2ccc(N(CC)CC)cc2C)c1C,inactive: -11.6%
15,CCOc1ccc(CCNc2nc3c(c(=O)n(C)c(=O)n3C)n2CC)cc1OCC,active: -96.5%
16,COC(=O)c1cc(C(=O)OC)cc(N2C(=O)CC(NNC(=O)c3ccccc3Br)C2=O)c1 (centres undefined),inactive: 32.6%
17,COc1ccccc1N1CCN(C(=O)c2oc3ccc(F)cc3c2C)CC1,inconclusive: -40.5%
18,Cc1csc(NC(=O)Cc2coc3cc(C)c(C(C)C)cc23)n1,active: -88.9%
19,CC(C)(C)Nc1nc(SCC(=O)Nc2ccccc2)nc(N2CCOCC2)n1,inactive: 9.88%
20,COc1ccc(C(=O)N/N=C(\c2ccccc2)c2ccccn2)cc1,active: -98.8%
21,Cn1c(=O)c2c(ncn2Cc2cccc(Cl)c2)n(C)c1=O,active: -75%
22,Cc1ccc(NC(=O)c2ccc([N+](=O)[O-])s2)cc1S(=O)(=O)N1CCOCC1,active: -94%
